One substance from publication PMC12869235 can be followed below.

The test concerns the target TaDOG1L1 (pGBKT7-TaDOG1L1) (wheat). As to the kind of experiment: two-hybrid; MatchMaker Gold system, yeast AH109; pGADT7-TaPP2C-a5s co-transformed with pGBKT7-TaDOG1Ls or pGBKT7-TaSnRK2s; selected on DDO, examined on TDO and QDO with or without 10 μM ABA.

No constants are given. Whether binding was seen depends on the method and setting. Binding calls can cover weak binding; strength is not graded here.

“TaPP2C-a5.1 (pGADT7-TaPP2C-a5.1) (from UniProt A0A3B6EGI9) (enzyme)”: the binding result is listed as “binds”.
